Laboratory results reported in publication PMC2782133.
Results are given in words; binding and its absence hold for the method and conditions named. For some assays here: In cells and extracts the contact can be indirect. Some binding calls cover weakened binding; strength is not graded here.

Amino acid sequences for entries named in this document (tags omitted).
UniProt P45973: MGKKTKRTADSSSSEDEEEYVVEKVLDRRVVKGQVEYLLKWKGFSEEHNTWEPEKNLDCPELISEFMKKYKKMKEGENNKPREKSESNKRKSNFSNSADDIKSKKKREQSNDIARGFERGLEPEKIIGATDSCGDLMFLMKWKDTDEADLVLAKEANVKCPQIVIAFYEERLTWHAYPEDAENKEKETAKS
UniProt P51532: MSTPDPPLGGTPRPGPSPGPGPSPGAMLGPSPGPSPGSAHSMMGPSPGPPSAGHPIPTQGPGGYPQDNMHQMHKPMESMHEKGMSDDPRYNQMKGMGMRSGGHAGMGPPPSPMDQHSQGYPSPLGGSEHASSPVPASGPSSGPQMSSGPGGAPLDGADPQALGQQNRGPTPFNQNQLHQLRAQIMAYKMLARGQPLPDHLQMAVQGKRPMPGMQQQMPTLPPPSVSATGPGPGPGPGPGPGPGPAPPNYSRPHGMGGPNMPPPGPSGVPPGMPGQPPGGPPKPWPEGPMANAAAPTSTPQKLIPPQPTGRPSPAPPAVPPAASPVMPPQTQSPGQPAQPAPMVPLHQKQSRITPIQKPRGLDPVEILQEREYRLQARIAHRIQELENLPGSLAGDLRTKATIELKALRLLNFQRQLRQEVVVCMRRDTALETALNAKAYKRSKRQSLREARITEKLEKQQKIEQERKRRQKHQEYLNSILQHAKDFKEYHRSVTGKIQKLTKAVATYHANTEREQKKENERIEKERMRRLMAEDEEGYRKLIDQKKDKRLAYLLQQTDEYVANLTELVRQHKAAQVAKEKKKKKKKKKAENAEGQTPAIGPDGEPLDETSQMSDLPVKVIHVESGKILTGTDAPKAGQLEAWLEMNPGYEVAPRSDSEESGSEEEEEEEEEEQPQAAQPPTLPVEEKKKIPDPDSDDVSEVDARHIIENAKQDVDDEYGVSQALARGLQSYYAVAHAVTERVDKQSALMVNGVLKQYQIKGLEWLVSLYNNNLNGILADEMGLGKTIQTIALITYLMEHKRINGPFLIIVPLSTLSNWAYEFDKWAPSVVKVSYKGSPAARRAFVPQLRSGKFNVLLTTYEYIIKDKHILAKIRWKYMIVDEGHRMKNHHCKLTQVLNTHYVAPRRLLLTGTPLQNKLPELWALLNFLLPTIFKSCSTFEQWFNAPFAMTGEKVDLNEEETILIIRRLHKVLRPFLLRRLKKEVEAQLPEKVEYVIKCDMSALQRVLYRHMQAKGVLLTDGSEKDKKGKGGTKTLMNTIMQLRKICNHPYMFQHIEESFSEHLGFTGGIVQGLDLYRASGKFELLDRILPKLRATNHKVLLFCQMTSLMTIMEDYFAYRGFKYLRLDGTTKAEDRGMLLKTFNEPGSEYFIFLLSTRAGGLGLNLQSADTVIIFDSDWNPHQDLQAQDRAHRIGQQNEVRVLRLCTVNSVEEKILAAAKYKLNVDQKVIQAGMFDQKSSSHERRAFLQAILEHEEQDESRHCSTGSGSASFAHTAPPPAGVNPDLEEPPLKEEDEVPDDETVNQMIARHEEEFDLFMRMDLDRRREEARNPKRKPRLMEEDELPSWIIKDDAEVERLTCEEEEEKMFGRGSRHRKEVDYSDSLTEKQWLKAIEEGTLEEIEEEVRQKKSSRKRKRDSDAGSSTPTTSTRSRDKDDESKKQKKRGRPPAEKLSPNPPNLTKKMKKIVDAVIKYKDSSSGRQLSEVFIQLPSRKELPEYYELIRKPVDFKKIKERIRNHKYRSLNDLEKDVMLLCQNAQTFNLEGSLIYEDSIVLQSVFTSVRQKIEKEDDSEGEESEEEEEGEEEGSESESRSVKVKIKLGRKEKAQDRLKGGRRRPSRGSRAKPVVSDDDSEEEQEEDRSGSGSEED
UniProt P51531: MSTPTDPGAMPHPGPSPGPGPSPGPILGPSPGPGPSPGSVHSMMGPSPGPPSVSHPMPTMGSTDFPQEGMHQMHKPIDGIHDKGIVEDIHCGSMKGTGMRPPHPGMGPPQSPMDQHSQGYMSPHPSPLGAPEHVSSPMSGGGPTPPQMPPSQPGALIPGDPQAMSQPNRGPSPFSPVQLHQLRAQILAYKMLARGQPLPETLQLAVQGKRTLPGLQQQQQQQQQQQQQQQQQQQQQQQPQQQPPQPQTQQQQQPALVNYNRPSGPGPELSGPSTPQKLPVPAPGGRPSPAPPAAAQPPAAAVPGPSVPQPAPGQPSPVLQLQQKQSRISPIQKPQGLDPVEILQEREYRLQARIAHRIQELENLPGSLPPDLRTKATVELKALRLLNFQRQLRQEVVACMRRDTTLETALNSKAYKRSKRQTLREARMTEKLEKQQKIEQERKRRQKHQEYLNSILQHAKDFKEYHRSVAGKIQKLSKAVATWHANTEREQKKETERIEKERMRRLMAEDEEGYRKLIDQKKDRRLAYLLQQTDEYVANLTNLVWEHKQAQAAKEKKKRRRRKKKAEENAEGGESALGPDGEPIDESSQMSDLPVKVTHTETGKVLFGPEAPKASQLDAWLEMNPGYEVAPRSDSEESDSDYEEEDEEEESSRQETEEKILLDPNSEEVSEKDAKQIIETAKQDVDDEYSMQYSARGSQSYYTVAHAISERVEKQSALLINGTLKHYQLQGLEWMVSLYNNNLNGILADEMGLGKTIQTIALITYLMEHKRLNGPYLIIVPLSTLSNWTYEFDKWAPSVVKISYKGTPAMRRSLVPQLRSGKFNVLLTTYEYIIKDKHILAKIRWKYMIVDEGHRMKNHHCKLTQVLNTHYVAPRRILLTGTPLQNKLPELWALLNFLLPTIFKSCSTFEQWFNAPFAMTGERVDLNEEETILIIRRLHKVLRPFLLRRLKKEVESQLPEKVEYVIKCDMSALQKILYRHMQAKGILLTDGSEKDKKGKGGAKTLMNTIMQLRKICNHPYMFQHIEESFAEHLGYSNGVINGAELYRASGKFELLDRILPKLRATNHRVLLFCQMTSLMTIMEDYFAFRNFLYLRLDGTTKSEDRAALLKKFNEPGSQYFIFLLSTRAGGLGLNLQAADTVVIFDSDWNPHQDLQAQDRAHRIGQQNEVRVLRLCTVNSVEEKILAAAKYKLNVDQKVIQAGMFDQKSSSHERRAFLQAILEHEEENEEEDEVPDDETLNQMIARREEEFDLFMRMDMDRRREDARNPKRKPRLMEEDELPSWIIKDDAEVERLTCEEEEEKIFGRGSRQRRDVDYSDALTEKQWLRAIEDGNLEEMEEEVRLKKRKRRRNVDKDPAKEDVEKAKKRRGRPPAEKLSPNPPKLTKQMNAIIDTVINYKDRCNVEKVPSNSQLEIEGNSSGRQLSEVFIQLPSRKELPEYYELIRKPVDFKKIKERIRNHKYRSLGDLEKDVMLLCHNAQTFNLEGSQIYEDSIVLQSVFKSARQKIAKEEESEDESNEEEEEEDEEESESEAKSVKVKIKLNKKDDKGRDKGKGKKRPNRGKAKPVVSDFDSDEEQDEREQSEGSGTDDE

How the values were obtained:
GST-HP1α (human) = GST-HP1α (human) (UniProt P45973); test: pull-down; GST fusion proteins bound to agarose beads incubated with purified histones, recombinant B10-tagged H3 constructs or purified Brg1-flag; ELB buffer (50mM HEPES pH 7, 250mM NaCl, 1mM EDTA, 0.1% NP40); elution with 20mM glutathione; western blot (anti-H3, anti-B10 or anti-Brg1); both purified
[1] = target: HP1α (endogenous, HeLa) (human (endogenous in HeLa)) (UniProt P45973); test: co-IP; from HeLa total extract; pre-immune serum as control

Q: “recombinant flag-tagged full length Brg1 (from UniProt P51532 1-1647) (enzyme)” was tested. Which binding (GST-HP1α (human)) did it give?
A: The binding was “binds”.

Q: With “Brm (endogenous, HeLa) (from UniProt P51531 1-1590) (enzyme)” as the substance, how does the binding [1] read?
A: Its binding is “binds”.
